These results are taken from publication PMC6340896.

Chains of the proteins cited; added tags and fusions are not shown. Lines headed by an entry give the natural chain unless they say otherwise; changes in a name come on top.
UniProt Q12522: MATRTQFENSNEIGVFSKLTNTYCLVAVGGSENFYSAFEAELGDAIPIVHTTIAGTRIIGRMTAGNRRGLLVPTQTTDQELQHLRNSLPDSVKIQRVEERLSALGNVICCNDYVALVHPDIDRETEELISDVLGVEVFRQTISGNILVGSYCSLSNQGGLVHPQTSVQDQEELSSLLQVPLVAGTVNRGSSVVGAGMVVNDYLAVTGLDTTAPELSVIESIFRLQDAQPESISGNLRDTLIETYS
UniProt Q03532: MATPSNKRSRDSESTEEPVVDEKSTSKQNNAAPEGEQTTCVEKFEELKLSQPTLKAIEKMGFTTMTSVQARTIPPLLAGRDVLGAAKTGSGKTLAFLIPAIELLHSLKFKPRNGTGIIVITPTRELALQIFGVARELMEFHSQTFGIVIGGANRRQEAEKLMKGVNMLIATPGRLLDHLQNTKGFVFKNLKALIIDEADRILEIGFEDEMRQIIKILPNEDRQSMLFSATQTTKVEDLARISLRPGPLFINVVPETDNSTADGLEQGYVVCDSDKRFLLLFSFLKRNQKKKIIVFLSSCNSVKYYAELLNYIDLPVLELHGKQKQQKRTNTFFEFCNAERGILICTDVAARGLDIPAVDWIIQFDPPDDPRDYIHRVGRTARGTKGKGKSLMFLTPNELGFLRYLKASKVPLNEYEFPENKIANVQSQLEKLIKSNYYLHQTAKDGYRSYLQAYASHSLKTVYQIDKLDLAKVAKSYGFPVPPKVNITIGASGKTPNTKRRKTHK
UniProt P38061: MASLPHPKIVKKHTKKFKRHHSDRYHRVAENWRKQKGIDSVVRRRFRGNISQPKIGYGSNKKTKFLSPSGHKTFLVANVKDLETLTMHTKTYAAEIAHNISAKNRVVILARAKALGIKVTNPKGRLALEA
UniProt P05737: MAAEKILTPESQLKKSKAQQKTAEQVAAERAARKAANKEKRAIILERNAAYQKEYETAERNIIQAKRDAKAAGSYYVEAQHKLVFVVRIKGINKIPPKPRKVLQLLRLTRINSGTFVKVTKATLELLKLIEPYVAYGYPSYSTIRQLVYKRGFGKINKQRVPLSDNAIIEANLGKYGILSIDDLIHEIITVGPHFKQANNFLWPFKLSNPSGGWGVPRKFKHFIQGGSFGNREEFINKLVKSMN

Assay in all cases: affinity purification with mass spectrometry; Rpf1-TAP pre-60S particle from yeast lysate on IgG-coated Dynabeads, released with TEV protease; composition told by mass spectrometry, by cross-linking with mass spectrometry and by the proteins modelled in the map; the particle holds rRNA
Assay [1] has as its target T1, Rpf1 fused to a C-terminal tandem affinity purification (TAP) tag (S. cerevisiae (endogenous in BY4741)) (UniProt P38805).
T1 sequence: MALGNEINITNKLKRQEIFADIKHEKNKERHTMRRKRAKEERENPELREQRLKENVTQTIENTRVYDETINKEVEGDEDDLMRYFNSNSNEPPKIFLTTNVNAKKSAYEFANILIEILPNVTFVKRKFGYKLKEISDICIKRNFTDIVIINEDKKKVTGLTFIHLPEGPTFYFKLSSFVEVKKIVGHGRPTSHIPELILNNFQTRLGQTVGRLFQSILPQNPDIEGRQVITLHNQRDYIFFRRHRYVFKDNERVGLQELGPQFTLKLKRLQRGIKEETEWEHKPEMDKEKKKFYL

The target in assay [2] is T1, Rpf1 fused to a C-terminal tandem affinity purification (TAP) tag (S. cerevisiae (endogenous in BY4741)). This is another data set of the same source.
Assay [3] has as its target T2, Rpf1 fused to a C-terminal tandem affinity purification (TAP) tag (S. cerevisiae (endogenous in BY4741)), P38805.
T2 chain: T1 sequence
The note with it: remark: other sources report otherwise.

Read-outs that look alike come from different tables or passages of the source. Results are given in words; binding and its absence hold for the method and conditions named. In cells and extracts the contact can be indirect. A yes stands for co-enrichment or nearness to the bait. Other partners may have been found. Where a sequence is shown, tags or fusion partners need not be part of it.

Tif6 (from UniProt Q12522 1-245): in assay [1], the binding result is reported as “binds”.
The same measure, in the same setting: with “Has1 (from UniProt Q03532 1-505) (enzyme)” the entry was “binds”.
For “ribosomal protein L4 (S. cerevisiae (endogenous in BY4741))”, in assay [1], the binding entry was “binds”.
The same measure, in the same setting: in the case of “ribosomal protein L32 (from UniProt P38061 1-130)” it was “binds”; in that of “ribosomal protein L7 (from UniProt P05737)”, “binds”.

B1: Nop15 (protein, UniProt P53927 1-220)
chain: MVKSTSKTSTKETVTKQPTEEKPIQEKEELALETSSSSSDEEDEKDEDEIEGLAASDDEQSGTHKIKRLNPKKQANEKKSKDKKTLEEYSGIIYVSRLPHGFHEKELSKYFAQFGDLKEVRLARNKKTGNSRHYGFLEFVNKEDAMIAQESMNNYLLMGHLLQVRVLPKGAKIEKLYKYKKRVLVEKGITKPVKQLKDNMKQKHEERIKKLAKSGIEFKW
With B1, the binding result in assay [2] is “binds”.

B2: Brx1 (protein, UniProt Q08235 1-291)
chain: MSSIYKALAGKSKDNKSEKKQGNVKQFMNKQRTLLISSRGVNYRHRHLIQDLSGLLPHSRKEPKLDTKKDLQQLNEIAELYNCNNVLFFEARKHQDLYLWLSKPPNGPTIKFYIQNLHTMDELNFTGNCLKGSRPVLSFDQRFESSPHYQLIKELLVHNFGVPPNARKSKPFIDHVMSFSIVDDKIWVRTYEISHSTKNKEEYEDGEEDISLVEIGPRFVMTVILILEGSFGGPKIYENKQYVSPNVVRAQIKQQAAEEAKSRAEAAVERKIKRRENVLAADPLSNDALFK
In the case of B2, the binding result in assay [2] is given as “binds”.

B3: Rrp1 (protein, UniProt P35178 1-278)
chain: METSNFVKQLSSNNRKTRVNALEALKKYLTAKQFKENKQIEFNKLWKGLYYAMWFSDRPRPQQRLANELGELHGLYFDPKDNSTADELTTNDKAFIKFSRGFWKVMCFEWFNIDRYRLDKYLLLIRRVLFSQLKYLQSRNWDKKLVDEYIKKVLRWLPLSGSPKVYTGIPIHIVDILLDEWERLLKDGDEDDEDEENKEEEMRKIAESAKKTPLADVIAIFQDIVADYNNSKVLREKIKEDLFSDTRLVSWDILEGETQHNDSSNESEEEEEEEWKGF
Consider B3, for which the binding result in assay [2] is “binds”.

B4: Rlp7 (protein, UniProt P40693 1-322)
chain: MSSTQDSKAQTLNSNPEILLRKRRNADRTRIERQELAKKKREEQIKKKRSNKNKFVRAESIVAKTLATSREKERIKRVSILEDKKAKNETQHIASGKDFILKITEKANGAEENSVDLEETEEEEDDGLIREKTTYDGKPALLFIVRVRGPLAVNIPNKAFKILSLLRLVETNTGVFVKLTKNVYPLLKVIAPYVVIGKPSLSSIRSLIQKRGRIIYKGENEAEPHEIVLNDNNIVEEQLGDHGIICVEDIIHEIATMGESFSVCNFFLQPFKLNREVSGFGSLNRLRKIKQREAESRTRQFSNAATAPVIEVDIDSLLAKLN
Turning to B4, the binding result in assay [2] is listed as “binds”.

B5: Ebp2, P36049 1-427 (protein)
chain: MAKGFKLKELLSHQKEIEKAEKLENDLKKKKSQELKKEEPTIVTASNLKKLEKKEKKADVKKEVAADTEEYQSQALSKKEKRKLKKELKKMQEQDATEAQKHMSGDEDESGDDREEEEEEEEEEEGRLDLEKLAKSDSESEDDSESENDSEEDEDVVAKEESEEKEEQEEEQDVPLSDVEFDSDADVVPHHKLTVNNTKAMKHALERVQLPWKKHSFQEHQSVTSETNTDEHIKDIYDDTERELAFYKQSLDAVLVARDELKRLKVPFKRPLDYFAEMVKSDEHMDKIKGKLIEEASDKKAREEARRQRQLKKFGKQVQNATLQKRQLEKRETLEKIKSLKNKRKHNEIDHSEFNVGVEEEVEGKRFDRGRPNGKRAAKNAKYGQGGMKRFKRKNDATSSADVSGFSSRKMKGKTNRPGKSRRARRF
As to B5, the binding result in assay [3] was “binds”.

B6: ribosomal protein L18 (protein, UniProt P0CX49 1-186)
chain: MGIDHTSKQHKRSGHRTAPKSDNVYLKLLVKLYTFLARRTDAPFNKVVLKALFLSKINRPPVSVSRIARALKQEGAANKTVVVVGTVTDDARIFEFPKTTVAALRFTAGARAKIVKAGGECITLDQLAVRAPKGQNTLILRGPRNSREAVRHFGMGPHKGKAPRILSTGRKFERARGRRRSKGFKV
In the case of B6, in assay [2], the binding entry is recorded as “binds”.

B7: Cic1 (protein, UniProt P38779 1-376)
chain: MAKKSNSKKSTPVSTPSKEKKKVIEKKSSTAIPRERVIKAVNELIKFTSKPQDENNEEGNNGKKNLLEDDEEELKKDLQLIVVNNKSFTGTSKSFKLKLLNVKHSFYKPWKEASATAVKDFKVLLILKDSDIKKVSEDDLFDQLDSEGIKVDEIICGKDLKTVYKAYEARNAFISQFSLILADDSIVTSLPKLMGGKAYNKVETTPISIRTHANKEFSLTTLTNNIKKVYMNQLPVKLPRGTTLNVHLGNLEWLRPEEFVDNVELISEQLIKAYQIRSIFIKTNRSPVLPLYYNQDVLDELEAKKDKIEETHEDDMVTIDGVQVHLSTFNKGLMEIANPSELGSIFSKQINNAKKRSSSELEKESSESEAVKKAKS
For the molecule B7, the binding result in assay [2] is “binds”.
